# Test results taken from PMC10008730.
# Amino acid sequences for entries named in this document (tags omitted).
# UniProt P26038: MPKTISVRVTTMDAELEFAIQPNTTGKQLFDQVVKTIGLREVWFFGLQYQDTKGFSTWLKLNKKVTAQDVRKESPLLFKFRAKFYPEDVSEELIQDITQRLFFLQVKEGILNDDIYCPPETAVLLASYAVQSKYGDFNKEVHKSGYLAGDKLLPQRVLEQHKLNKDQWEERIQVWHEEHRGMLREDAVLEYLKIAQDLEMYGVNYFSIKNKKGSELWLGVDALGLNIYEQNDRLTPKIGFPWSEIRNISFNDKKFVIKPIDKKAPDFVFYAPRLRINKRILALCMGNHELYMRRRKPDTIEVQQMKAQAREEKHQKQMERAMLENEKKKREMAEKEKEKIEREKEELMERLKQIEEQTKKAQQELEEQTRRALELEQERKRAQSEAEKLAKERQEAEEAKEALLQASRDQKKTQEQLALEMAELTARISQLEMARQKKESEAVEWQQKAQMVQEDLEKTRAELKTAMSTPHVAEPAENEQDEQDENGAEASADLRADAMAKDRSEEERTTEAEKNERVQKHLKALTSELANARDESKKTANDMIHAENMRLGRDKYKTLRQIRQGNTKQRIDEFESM
# UniProt P06733: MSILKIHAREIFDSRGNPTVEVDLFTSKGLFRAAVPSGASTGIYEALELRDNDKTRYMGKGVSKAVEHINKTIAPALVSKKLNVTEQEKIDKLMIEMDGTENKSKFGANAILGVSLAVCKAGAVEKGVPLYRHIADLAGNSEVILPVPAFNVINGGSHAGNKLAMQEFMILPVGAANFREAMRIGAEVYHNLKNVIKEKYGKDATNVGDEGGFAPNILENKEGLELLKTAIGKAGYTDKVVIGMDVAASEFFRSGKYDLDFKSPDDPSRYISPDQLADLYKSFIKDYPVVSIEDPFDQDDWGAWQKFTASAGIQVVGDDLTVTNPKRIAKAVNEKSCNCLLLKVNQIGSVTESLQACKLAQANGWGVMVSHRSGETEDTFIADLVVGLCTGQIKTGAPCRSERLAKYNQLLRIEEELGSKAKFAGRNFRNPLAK
# No constants are given. Whether binding was seen depends on the method and setting. Binding seen in cells or lysates may run through a third protein. Some entries that bind do so weakly or less than the wild type.
# B1: Metadherin (Mtdh) (protein, UniProt Q86UE4 1-582)
# chain: MAARSWQDELAQQAEEGSARLREMLSVGLGFLRTELGLDLGLEPKRYPGWVILVGTGALGLLLLFLLGYGWAAACAGARKKRRSPPRKREEAAAVPAAAPDDLALLKNLRSEEQKKKNRKKLSEKPKPNGRTVEVAEGEAVRTPQSVTAKQPPEIDKKNEKSKKNKKKSKSDAKAVQNSSRHDGKEVDEGAWETKISHREKRQQRKRDKVLTDSGSLDSTIPGIENTITVTTEQLTTASFPVGSKKNKGDSHLNVQVSNFKSGKGDSTLQVSSGLNENLTVNGGGWNEKSVKLSSQISAGEEKWNSVSPASAGKRKTEPSAWSQDTGDANTNGKDWGRSWSDRSIFSGIGSTAEPVSQSTTSDYQWDVSRNQPYIDDEWSGLNGLSSADPNSDWNAPAEEWGNWVDEERASLLKSQEPIPDDQKVSDDDKEKGEGALPTGKSKKKKKKKKKQGEDNSTAQDTEELEKEIREDLPVNTSKTRPKQEKAFSLKTISTSDPAEVLVKNSQPIKTLPPATSTEPSVILSKSDSDKSSSQVPPILQETDKSKSNTKQNSVPPSQTKSETSWESPKQIKKKKKARRET
# Key:
# [1] = target: Moesin (MSN) (human (endogenous in MDA-MB-231)) (UniProt P26038); experiment: co-IP; MDA-MB-231 cell lysates; reciprocal; samples pretreated with protein A agarose beads and rabbit IgG, overnight immunoprecipitation with beads conjugated with anti-ENO1, anti-MSN or anti-Mtdh antibodies; washed three times with PBS; Western blotting
# [2] = target: Enolase 1 (ENO1) (human (endogenous in MDA-MB-231)) (UniProt P06733); experiment: as above
binder,measurement,setting,value
B1,binding,[1],binds
same,binding,[2],binds
